Measurements from the supplement of paper PMC12595434, “Development of retinoid nuclear receptor pathway antagonists through targeting aldehyde dehydrogenase 1A3” (iScience, 2025).
The list shows a part of the results. Single values of this set are uncertain.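 Tm was set to 64 °C where no melting was found, and many curves are irregular.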

By UniProt entry, the sequences of proteins in these tests, tags left out.
UniProt P54709, whole entry: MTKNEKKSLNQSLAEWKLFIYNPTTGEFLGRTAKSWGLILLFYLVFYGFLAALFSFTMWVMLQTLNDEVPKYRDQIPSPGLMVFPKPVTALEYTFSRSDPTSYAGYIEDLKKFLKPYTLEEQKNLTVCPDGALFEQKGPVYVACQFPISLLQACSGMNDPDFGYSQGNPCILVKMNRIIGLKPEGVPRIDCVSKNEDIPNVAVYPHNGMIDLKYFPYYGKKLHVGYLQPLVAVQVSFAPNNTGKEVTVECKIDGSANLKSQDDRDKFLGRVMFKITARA

Biological target: ATP1B3 (UniProt P54709)
Experiment: melting temperature shift (DMSO Tm minus MBE1-treated Tm) in cellular thermal proteome profiling; higher = less thermal stabilization by MBE1 (negative = stabilized by MBE1)
Settings: A375

SMILES: CCc1cnccc1C(=O)Nc1cc2c(cc1F)NC(=O)CC2
- melting temperature shift (MBE1 concentration: 100 nM): -1.15 °C
- melting temperature shift (MBE1 concentration: 1 uM): -0.922 °C
